Reference: the supplement of paper PMC10077471
In all, about 1,900 compounds were measured (“excess over highest single agent (ExcessHSA) synergy score, 6x6 matrix”: median about -83, lowest 2% from about -370 on). Some of the results follow.

System: NCI-H446
Assay: excess over highest single agent (ExcessHSA) synergy score, 6x6 matrix; higher = less synergy (more negative = stronger synergy)
Conditions: 72 h; CellTiter-Glo viability

Going from `CN1C(=O)CCS(=O)(=O)C1c1ccc(Cl)cc1` (stereo not drawn) + Cc1sc2c(c1C)C(c1ccc(Cl)cc1)=N[C@@H](CC(=O)OC(C)(C)C)c1nnc(C)n1-2 [NCGC00250412-19] to `CN1CCC(=C2c3ccccc3CC(=O)c3sccc32)CC1` + Cc1sc2c(c1C)C(c1ccc(Cl)cc1)=N[C@@H](CC(=O)OC(C)(C)C)c1nnc(C)n1-2 [NCGC00250412-19], the “excess over highest single agent” value falls from -51.7 to -365.

First: CN(C)[C@@H]1C(=O)C(C(N)=O)=C(O)[C@@]2(O)C(=O)C3=C(O)c4c(O)cccc4[C@@](C)(O)[C@H]3[C@H](O)[C@@H]12 + Cc1sc2c(c1C)C(c1ccc(Cl)cc1)=N[C@@H](CC(=O)OC(C)(C)C)c1nnc(C)n1-2 [NCGC00250412-19]
Second: Cc1ccccc1N1C(=O)c2cc(S(N)(=O)=O)c(Cl)cc2NC1C (stereo not drawn) + Cc1sc2c(c1C)C(c1ccc(Cl)cc1)=N[C@@H](CC(=O)OC(C)(C)C)c1nnc(C)n1-2 [NCGC00250412-19]
The “excess over highest single agent” value of the first is higher: -9.12 for the first, -15.5 for the second.

Compared with `Cn1c2ccccc2c2c3c(c4c5ccccc5n(CCC#N)c4c21)CNC3=O` + Cc1sc2c(c1C)C(c1ccc(Cl)cc1)=N[C@@H](CC(=O)OC(C)(C)C)c1nnc(C)n1-2 [NCGC00250412-19], `Cc1n[nH]c2ccc(-c3cncc(OC[C@@H](N)Cc4c[nH]c5ccccc45)c3)cc12` + Cc1sc2c(c1C)C(c1ccc(Cl)cc1)=N[C@@H](CC(=O)OC(C)(C)C)c1nnc(C)n1-2 [NCGC00250412-19] is lower in “excess over highest single agent” value: 242 for the first, -246 for the second.

First: CCc1ccc(C(=O)Nc2cc(CN3CCN(C)CC3)cc(C(F)(F)F)c2)cc1C#Cc1cnc2ccnn2c1 + Cc1sc2c(c1C)C(c1ccc(Cl)cc1)=N[C@@H](CC(=O)OC(C)(C)C)c1nnc(C)n1-2 [NCGC00250412-19]
Second: CN1CCN(c2cc(C(=O)Nc3ccc4c(c3)-c3c(c(C(N)=O)nn3-c3ccc(F)cc3)CC4)c(Cl)cn2)CC1 + Cc1sc2c(c1C)C(c1ccc(Cl)cc1)=N[C@@H](CC(=O)OC(C)(C)C)c1nnc(C)n1-2 [NCGC00250412-19]
The “excess over highest single agent” value of the first is higher: -7.02 for the first, -19.7 for the second.

First: O=C1N(c2ccccc2)c2ccccc2C1(Cc1ccncc1)Cc1ccncc1 + Cc1sc2c(c1C)C(c1ccc(Cl)cc1)=N[C@@H](CC(=O)OC(C)(C)C)c1nnc(C)n1-2 [NCGC00250412-19]
Second: O=C(O)c1ccccc1C(=O)Nc1ccc(-c2ccccc2)cc1 + Cc1sc2c(c1C)C(c1ccc(Cl)cc1)=N[C@@H](CC(=O)OC(C)(C)C)c1nnc(C)n1-2 [NCGC00250412-19]
The “excess over highest single agent” value of the first is lower: -197 for the first, -86.9 for the second.

First: C=CC(=O)N1CCC[C@@H](n2nc(-c3ccc(Oc4ccccc4)cc3)c3c(N)ncnc32)C1 + Cc1sc2c(c1C)C(c1ccc(Cl)cc1)=N[C@@H](CC(=O)OC(C)(C)C)c1nnc(C)n1-2 [NCGC00250412-19]
Second: Cc1cc(-c2nnc3n2CCCCC3)c(C)n1-c1ccccc1 + Cc1sc2c(c1C)C(c1ccc(Cl)cc1)=N[C@@H](CC(=O)OC(C)(C)C)c1nnc(C)n1-2 [NCGC00250412-19]
The “excess over highest single agent” value of the first is higher: -93.4 for the first, -101 for the second.

Going from `CC1=C(CC(=O)O)c2cc(F)ccc2/C1=C\c1ccc([S+](C)[O-])cc1` (stereo not drawn) + Cc1sc2c(c1C)C(c1ccc(Cl)cc1)=N[C@@H](CC(=O)OC(C)(C)C)c1nnc(C)n1-2 [NCGC00250412-19] to `C=CC(=O)Nc1ccc2ncnc(Nc3ccc(OCc4cccc(F)c4)c(Cl)c3)c2c1` + Cc1sc2c(c1C)C(c1ccc(Cl)cc1)=N[C@@H](CC(=O)OC(C)(C)C)c1nnc(C)n1-2 [NCGC00250412-19], the “excess over highest single agent” value falls from -62.7 to -234.

Compared with `Cc1nc(N)sc1-c1ccnc(Nc2ccc(N3CCOCC3)cc2)n1` + Cc1sc2c(c1C)C(c1ccc(Cl)cc1)=N[C@@H](CC(=O)OC(C)(C)C)c1nnc(C)n1-2 [NCGC00250412-19], `Cc1cccc(/C=N/Nc2cc(N3CCOCC3)nc(OCCc3ccccn3)n2)c1` + Cc1sc2c(c1C)C(c1ccc(Cl)cc1)=N[C@@H](CC(=O)OC(C)(C)C)c1nnc(C)n1-2 [NCGC00250412-19] is lower in “excess over highest single agent” value: -56.9 for the first, -218 for the second.

Compared with `C[C@]12CC[C@@H]3c4ccc(O)cc4CC[C@H]3[C@@H]1C[C@@H](O)[C@@H]2O` + Cc1sc2c(c1C)C(c1ccc(Cl)cc1)=N[C@@H](CC(=O)OC(C)(C)C)c1nnc(C)n1-2 [NCGC00250412-19], `CC[C@H](CC[C@@H](C)[C@H]1CC[C@H]2[C@@H]3CC=C4C[C@@H](O)CC[C@]4(C)[C@H]3CC[C@]12C)C(C)C` + Cc1sc2c(c1C)C(c1ccc(Cl)cc1)=N[C@@H](CC(=O)OC(C)(C)C)c1nnc(C)n1-2 [NCGC00250412-19] is lower in “excess over highest single agent” value: -52.9 for the first, -193 for the second.

Going from `C[C@@H]1CN(CC(=O)Nc2ccc3c(c2)Cc2cccc(-c4cc(=O)cc(N5CCOCC5)o4)c2S3)C[C@H](C)O1` + Cc1sc2c(c1C)C(c1ccc(Cl)cc1)=N[C@@H](CC(=O)OC(C)(C)C)c1nnc(C)n1-2 [NCGC00250412-19] to `CC1(C)CCC(CN2CCN(c3ccc(C(=O)NS(=O)(=O)c4ccc(NCC5CCOCC5)c([N+](=O)[O-])c4)c(Oc4cnc5[nH]ccc5c4)c3)CC2)=C(c2ccc(Cl)cc2)C1` + Cc1sc2c(c1C)C(c1ccc(Cl)cc1)=N[C@@H](CC(=O)OC(C)(C)C)c1nnc(C)n1-2 [NCGC00250412-19], the “excess over highest single agent” value falls from -4.5 to -286.

Going from `Cc1noc(NS(=O)(=O)c2ccc(N)cc2)c1C` + Cc1sc2c(c1C)C(c1ccc(Cl)cc1)=N[C@@H](CC(=O)OC(C)(C)C)c1nnc(C)n1-2 [NCGC00250412-19] to `O=c1ccc2ccc(O)c(O)c2o1` + Cc1sc2c(c1C)C(c1ccc(Cl)cc1)=N[C@@H](CC(=O)OC(C)(C)C)c1nnc(C)n1-2 [NCGC00250412-19], the “excess over highest single agent” value falls from 385 to -120.

First: CCc1cccc2c3c([nH]c12)C(CC)(CC(=O)O)OCC3 (stereo not drawn) + Cc1sc2c(c1C)C(c1ccc(Cl)cc1)=N[C@@H](CC(=O)OC(C)(C)C)c1nnc(C)n1-2 [NCGC00250412-19]
Second: CC(=O)Nc1sc2c(c1-c1nc3ccccc3s1)CNC2 + Cc1sc2c(c1C)C(c1ccc(Cl)cc1)=N[C@@H](CC(=O)OC(C)(C)C)c1nnc(C)n1-2 [NCGC00250412-19]
The “excess over highest single agent” value of the first is lower: -115 for the first, 354 for the second.

First: CCC[C@H](NC(=O)[C@@H]1[C@H]2CCC[C@H]2CN1C(=O)[C@@H](NC(=O)[C@@H](NC(=O)c1cnccn1)C1CCCCC1)C(C)(C)C)C(=O)C(=O)NC1CC1 + Cc1sc2c(c1C)C(c1ccc(Cl)cc1)=N[C@@H](CC(=O)OC(C)(C)C)c1nnc(C)n1-2 [NCGC00250412-19]
Second: CCOC(=O)[C@H](CCc1ccccc1)N[C@@H](C)C(=O)N1CCC[C@H]1C(=O)O + Cc1sc2c(c1C)C(c1ccc(Cl)cc1)=N[C@@H](CC(=O)OC(C)(C)C)c1nnc(C)n1-2 [NCGC00250412-19]
The “excess over highest single agent” value of the first is lower: -97.5 for the first, -63.7 for the second.

First: CNC(=O)[C@H](Cc1ccccc1)NC(=O)[C@H](CC(C)C)[C@H](CSc1cccs1)C(=O)NO + Cc1sc2c(c1C)C(c1ccc(Cl)cc1)=N[C@@H](CC(=O)OC(C)(C)C)c1nnc(C)n1-2 [NCGC00250412-19]
Second: CCC[C@H](Nc1nc(-c2ccc(NC(=O)NCC)c(OC)c2)ncc1C)c1cccnc1 + Cc1sc2c(c1C)C(c1ccc(Cl)cc1)=N[C@@H](CC(=O)OC(C)(C)C)c1nnc(C)n1-2 [NCGC00250412-19]
The “excess over highest single agent” value of the first is lower: -173 for the first, -122 for the second.

Compared with `CCCCCCCCCCC[C@@H](C[C@@H]1OC(=O)[C@H]1CCCCCC)OC(=O)[C@H](CC(C)C)NC=O` + Cc1sc2c(c1C)C(c1ccc(Cl)cc1)=N[C@@H](CC(=O)OC(C)(C)C)c1nnc(C)n1-2 [NCGC00250412-19], `CC(C)(C)C(=O)OCOP(=O)(COCCn1cnc2c(N)ncnc21)OCOC(=O)C(C)(C)C` + Cc1sc2c(c1C)C(c1ccc(Cl)cc1)=N[C@@H](CC(=O)OC(C)(C)C)c1nnc(C)n1-2 [NCGC00250412-19] is lower in “excess over highest single agent” value: -106 for the first, -183 for the second.

Compared with `CS(=O)(=O)c1cccc(CNc2nc(Nc3ccc4c(c3)CCC(=O)N4)ncc2C(F)(F)F)c1` + Cc1sc2c(c1C)C(c1ccc(Cl)cc1)=N[C@@H](CC(=O)OC(C)(C)C)c1nnc(C)n1-2 [NCGC00250412-19], `CS(=O)(=O)CCNCc1ccc(-c2ccc3ncnc(Nc4ccc(OCc5cccc(F)c5)c(Cl)c4)c3c2)o1` + Cc1sc2c(c1C)C(c1ccc(Cl)cc1)=N[C@@H](CC(=O)OC(C)(C)C)c1nnc(C)n1-2 [NCGC00250412-19] is lower in “excess over highest single agent” value: 58.6 for the first, -336 for the second.

Compared with `CC(C)(S)[C@@H](N)C(=O)O` + Cc1sc2c(c1C)C(c1ccc(Cl)cc1)=N[C@@H](CC(=O)OC(C)(C)C)c1nnc(C)n1-2 [NCGC00250412-19], `CC(C)(Sc1cc(C(C)(C)C)c(O)c(C(C)(C)C)c1)Sc1cc(C(C)(C)C)c(O)c(C(C)(C)C)c1` + Cc1sc2c(c1C)C(c1ccc(Cl)cc1)=N[C@@H](CC(=O)OC(C)(C)C)c1nnc(C)n1-2 [NCGC00250412-19] is higher in “excess over highest single agent” value: -143 for the first, 168 for the second.

Compared with `COc1cc(Nc2ncc(F)c(Nc3ccc4c(n3)NC(=O)C(C)(C)O4)n2)cc(OC)c1OC` + Cc1sc2c(c1C)C(c1ccc(Cl)cc1)=N[C@@H](CC(=O)OC(C)(C)C)c1nnc(C)n1-2 [NCGC00250412-19], `COc1cc(OC)c(C(=O)CCCN2CCCC2)c(OC)c1` + Cc1sc2c(c1C)C(c1ccc(Cl)cc1)=N[C@@H](CC(=O)OC(C)(C)C)c1nnc(C)n1-2 [NCGC00250412-19] is lower in “excess over highest single agent” value: -11 for the first, -58 for the second.

First: N#CC(c1ccc(Cl)cc1)c1c(Cl)cc(-n2ncc(=O)[nH]c2=O)cc1Cl (stereo not drawn) + Cc1sc2c(c1C)C(c1ccc(Cl)cc1)=N[C@@H](CC(=O)OC(C)(C)C)c1nnc(C)n1-2 [NCGC00250412-19]
Second: COc1ccccc1N1CCN(CC(O)COc2cccc3ccccc23)CC1 (stereo not drawn) + Cc1sc2c(c1C)C(c1ccc(Cl)cc1)=N[C@@H](CC(=O)OC(C)(C)C)c1nnc(C)n1-2 [NCGC00250412-19]
The “excess over highest single agent” value of the first is lower: -103 for the first, -45.4 for the second.
